## Library screen at single concentrations

The filed quantity is “Percent Effect” (%).
The controls that fix the scale are not given in the record; negative values are as filed.
The compounds are a random part of those screened.
Two or more numbers in one place are separate tests of the same structure; such repeats can differ widely.

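Whole-cell growth test on Mycobacterium tuberculosis, read after 4 days in a medium based on cholesterol and the lipid DPPC; the read-out is not stated. Concentration: 50 µM. Higher reads as more growth inhibition (inferred: compounds with an IC50 in retests scored well above the rest). About 69,000 compounds were tested under these conditions; 0.54% (about 370) showed 50% or more at least once.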

| structure | percent effect |
|---|---|
| `Cn1c(-c2ccc(F)cc2)cn2cc(C(=O)N3CCC(N)C3)nc2c1=O` (stereo not given) | -4.798 |
| `Cc1ccccc1CC(C)NCc1c(C)nn(C)c1N1CCOCC1.Cl` (stereo not given) | 13.12 |
| `CNC(=O)NCC1CCC2(CCN(C(=O)c3ccccc3)CC2)CO1` (stereo not given) | 0.09792 |
| `Cc1cncc(C2CCN(Cc3ccsc3)CC2)n1` | 7.4 & -2.148 |
| `COCC1CCN(Cc2cc(O)c3c(C)ccc(C)c3n2)CC1` | -29.02 |
| `Cc1c(C(C)NC(=O)N2CCN(C3CCCC3)CC2)cnn1C` (stereo not given) | -36.64 |
| `O=C(c1ccc2nncn2c1)N1CCCC1c1noc(C2CC2)n1` (stereo not given) | -10.39 & -8.419 |
| `CC(=O)N1CCc2[nH]cnc2C12CCN(CC1CCOC1)CC2` (stereo not given) | -15.59 |
| `Cn1ccnc1CN1CCN(CCOc2cccc(C#N)c2)CC1` | 13.37 |
| `O=C(c1cc2c(s1)CCCCC2)N1CCC(c2ncc[nH]2)CC1` | 0.3858 & -2.749 |
| `COc1ccccc1[C@@H]1CN(Cc2csc(C(C)=O)c2)C[C@H]1C(=O)O` | -38.32 |

Once more, the final 2:

* O=C(c1cc2c(s1)CCCCC2)N1CCC(c2ncc[nH]2)CC1 | 0.3858% & -2.749%
* COc1ccccc1[C@@H]1CN(Cc2csc(C(C)=O)c2)C[C@H]1C(=O)O | -38.32%

The values are deposited in ChEMBL (CHEMBL3988442, “University of Dundee, Small-Polar-MMV Screening Library” (2021)).